Experimental data published in patent US20210269539A1.
Results are given in words; binding and its absence hold for the method and conditions named. Some entries that bind do so weakly or less than the wild type. Tags and fused reporters may be left off the sequences shown.

Experiments:
human OX40-6his (human) [1] = biological target: T1, human OX40-6his (human) (UniProt P43489); assay: PK ELISA, human OX40-6his coated, antibody from mouse serum
T1 sequence: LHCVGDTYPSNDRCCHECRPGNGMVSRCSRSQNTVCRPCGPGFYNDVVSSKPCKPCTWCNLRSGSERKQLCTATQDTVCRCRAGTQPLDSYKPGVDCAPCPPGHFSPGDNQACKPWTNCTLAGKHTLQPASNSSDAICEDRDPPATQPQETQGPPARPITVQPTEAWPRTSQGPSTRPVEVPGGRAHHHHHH

human OX40-6his (human) [2] = biological target: T1, human OX40-6his (human); assay: PK ELISA, human OX40-6his coated, antibody from cynomolgus monkey serum

binding (human OX40-6his (human) [1]): binds | binding (human OX40-6his (human) [2]): binds
B1: MT01-C1(G2) (antibody, human IgG2, kappa)
heavy: EVQLVQSGAEVKKPGESLKISCKASGYTFTSYVMHWLRQMPGKGLEWMGYINPYNDGTKYNEKFKGQVTISSDKSISTAYLQWSSLKASDTAMYYCANYYGSKFAMDYWGQGTMVTVSSASTKGPSVFPLAPCSRSTSESTAALGCLVKDYFPEPVTVSWNSGALTSGVHTFPAVLQSSGLYSLSSVVTVPSSNFGTQTYTCNVDHKPSNTKVDKTVERKCCVECPPCPAPPVAGPSVFLFPPKPKDTLMISRTPEVTCVVVDVSHEDPEVQFNWYVDGVEVHNAKTKPREEQFNSTFRVVSVLTVVHQDWLNGKEYKCKVSNKGLPAPIEKTISKTKGQPREPQVYTLPPSREEMTKNQVSLTCLVKGFYPSDIAVEWESNGQPENNYKTTPPMLDSDGSFFLYSKLTVDKSRWQQGNVFSCSVMHEALHNHYTQKSLSLSPGK
light: DIQMTQSPSSVSASVGDRVTITCRASQDISNYLSWYQQKPGGAVKLLIYYTSRLHSGVPSRFSGSGSGTDYTLTISSLQPEDFATYFCQQGITLPWTFGQGTKVEIKRTVAAPSVFIFPPSDEQLKSGTASVVCLLNNFYPREAKVQWKVDNALQSGNSQESVTEQDSKDSTYSLSSTLTLSKADYEKHKVYACEVTHQGLSSPVTKSFNRGEC
